# Experimental data reported in publication PMC11297949.
# Protein sequences, listed by entry. Tags and fused reporters are not part of them. Residues count along the entry.
# UniProt Q9NZQ7, residues 19-290: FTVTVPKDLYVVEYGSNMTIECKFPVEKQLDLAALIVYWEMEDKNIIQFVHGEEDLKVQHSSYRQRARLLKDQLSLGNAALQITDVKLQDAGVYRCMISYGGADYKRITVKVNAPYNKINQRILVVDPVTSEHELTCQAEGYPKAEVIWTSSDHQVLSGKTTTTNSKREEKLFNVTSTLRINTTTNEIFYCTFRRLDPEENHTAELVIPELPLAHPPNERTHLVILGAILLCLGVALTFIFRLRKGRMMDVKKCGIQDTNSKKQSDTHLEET
# Changes are numbered by the printed parent chain. Like-named read-outs stand apart in the source and are kept apart here. Results are given in words; binding and its absence hold for the method and conditions named. In cells and extracts the contact can be indirect. Some binding calls cover weakened binding; strength is not graded here. For part of these data: Where a sequence is shown, tags or fusion partners need not be part of it.
# T1: Flag-tagged OTUD3 M2 region (amino acids 53-196) (UniProt Q5T2D3)
# T1 sequence: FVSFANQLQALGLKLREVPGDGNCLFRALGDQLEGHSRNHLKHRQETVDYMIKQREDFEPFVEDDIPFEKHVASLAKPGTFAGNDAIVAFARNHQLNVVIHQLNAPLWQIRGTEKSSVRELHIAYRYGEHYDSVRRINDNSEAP
# T2: Flag-tagged OTUD3-C76A (UniProt Q5T2D3)
# T2 sequence: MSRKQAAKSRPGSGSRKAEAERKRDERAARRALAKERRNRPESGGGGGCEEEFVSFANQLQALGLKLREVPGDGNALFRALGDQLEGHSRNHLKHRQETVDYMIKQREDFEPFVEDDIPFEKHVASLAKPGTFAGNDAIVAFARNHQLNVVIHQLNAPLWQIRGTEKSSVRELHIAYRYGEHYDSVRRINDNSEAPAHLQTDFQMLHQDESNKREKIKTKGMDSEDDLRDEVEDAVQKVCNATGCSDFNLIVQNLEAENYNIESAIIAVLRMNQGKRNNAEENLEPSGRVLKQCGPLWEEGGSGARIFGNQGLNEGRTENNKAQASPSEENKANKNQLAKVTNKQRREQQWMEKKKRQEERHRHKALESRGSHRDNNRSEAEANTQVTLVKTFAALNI
# T3: Flag-tagged full-length wild-type OTUD3 (UniProt Q5T2D3)
# T3 sequence: T2 sequence with A76C
# T4: OTUD3 in Farage cells (human (endogenous in Farage)) (UniProt Q5T2D3)
# T4 sequence: T2 sequence with A76C
# T5: His-tagged MYL12A M2 region (amino acids 18-171) (UniProt P19105)
# T5 sequence: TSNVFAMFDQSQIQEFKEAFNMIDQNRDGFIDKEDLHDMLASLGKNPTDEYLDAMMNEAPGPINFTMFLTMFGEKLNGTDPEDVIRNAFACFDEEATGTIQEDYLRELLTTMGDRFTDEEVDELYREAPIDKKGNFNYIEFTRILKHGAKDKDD
# B1: His-tagged full-length MYL12A (protein, UniProt P19105 1-171)
# chain: MSSKRTKTKTKKRPQRATSNVFAMFDQSQIQEFKEAFNMIDQNRDGFIDKEDLHDMLASLGKNPTDEYLDAMMNEAPGPINFTMFLTMFGEKLNGTDPEDVIRNAFACFDEEATGTIQEDYLRELLTTMGDRFTDEEVDELYREAPIDKKGNFNYIEFTRILKHGAKDKDD
# B2: MYL12A in Farage cells (protein, UniProt P19105 1-171)
# chain: B1 chain
# B3: Flag-tagged full-length wild-type OTUD3 (enzyme, UniProt Q5T2D3 1-398)
# chain: T2 sequence with A76C
# Columns and labels:
# [1] = target: T1, Flag-tagged OTUD3 M2 region (amino acids 53-196); assay: co-IP; HEK293T cells co-transfected; IP with Flag beads from cell lysates, overnight at 4 °C; WB with antibodies against His and Flag; one sample with OTUD3-WT treated with rupatadine after transfection (binding reduced)
# Flag-tagged OTUD3-C76A [2] = target: T2, Flag-tagged OTUD3-C76A; assay: as above
# [3] = target: T3, Flag-tagged full-length wild-type OTUD3; assay: as above
# [4] = target: T4, OTUD3 in Farage cells (human (endogenous in Farage)); assay: co-IP; co-immunoprecipitation from Farage cells
# [5] = target: T1, Flag-tagged OTUD3 M2 region (amino acids 53-196); assay: co-IP; HEK293T cells co-transfected; IP with Flag beads from cell lysates, overnight at 4 °C; WB with antibodies against His and Flag; one sample with OTUD3-WT treated with rupatadine after transfection (binding reduced); remark: listed apart in the source
# Flag-tagged OTUD3-C76A [6] = target: T2, Flag-tagged OTUD3-C76A; assay: as above; remark: listed apart in the source
# [7] = target: T3, Flag-tagged full-length wild-type OTUD3; assay: as above; remark: listed apart in the source
# [8] = target: T4, OTUD3 in Farage cells (human (endogenous in Farage)); assay: co-IP; co-immunoprecipitation from Farage cells; remark: listed apart in the source
# [9] = target: T5, His-tagged MYL12A M2 region (amino acids 18-171); assay: co-IP; HEK293T cells co-transfected with Flag-OTUD3 and His-tagged MYL12A constructs; IP with His beads from cell lysates; WB with antibodies against Flag and His
molecule,measurement,setting,value
His-tagged PD-L1 (from UniProt Q9NZQ7 19-290) (ligand),binding,[1],binds
same,binding,Flag-tagged OTUD3-C76A [2],binds
same,binding,[3],binds
PD-L1 in Farage cells (from UniProt Q9NZQ7 19-290) (ligand),binding,[4],binds
B1,binding,[5],binds
same,binding,Flag-tagged OTUD3-C76A [6],binds
same,binding,[7],binds
B2,binding,[8],binds
B3,binding,[9],binds
